The results in this text go back to patent US6365154 (GlaxoSmithKline, dated 2002).

By UniProt entry, the sequences of proteins in these tests, tags left out. Where a name states a change or a piece, a line headed by the entry shows the natural chain unless it says otherwise. Residues count along the entry.
UniProt Q02763: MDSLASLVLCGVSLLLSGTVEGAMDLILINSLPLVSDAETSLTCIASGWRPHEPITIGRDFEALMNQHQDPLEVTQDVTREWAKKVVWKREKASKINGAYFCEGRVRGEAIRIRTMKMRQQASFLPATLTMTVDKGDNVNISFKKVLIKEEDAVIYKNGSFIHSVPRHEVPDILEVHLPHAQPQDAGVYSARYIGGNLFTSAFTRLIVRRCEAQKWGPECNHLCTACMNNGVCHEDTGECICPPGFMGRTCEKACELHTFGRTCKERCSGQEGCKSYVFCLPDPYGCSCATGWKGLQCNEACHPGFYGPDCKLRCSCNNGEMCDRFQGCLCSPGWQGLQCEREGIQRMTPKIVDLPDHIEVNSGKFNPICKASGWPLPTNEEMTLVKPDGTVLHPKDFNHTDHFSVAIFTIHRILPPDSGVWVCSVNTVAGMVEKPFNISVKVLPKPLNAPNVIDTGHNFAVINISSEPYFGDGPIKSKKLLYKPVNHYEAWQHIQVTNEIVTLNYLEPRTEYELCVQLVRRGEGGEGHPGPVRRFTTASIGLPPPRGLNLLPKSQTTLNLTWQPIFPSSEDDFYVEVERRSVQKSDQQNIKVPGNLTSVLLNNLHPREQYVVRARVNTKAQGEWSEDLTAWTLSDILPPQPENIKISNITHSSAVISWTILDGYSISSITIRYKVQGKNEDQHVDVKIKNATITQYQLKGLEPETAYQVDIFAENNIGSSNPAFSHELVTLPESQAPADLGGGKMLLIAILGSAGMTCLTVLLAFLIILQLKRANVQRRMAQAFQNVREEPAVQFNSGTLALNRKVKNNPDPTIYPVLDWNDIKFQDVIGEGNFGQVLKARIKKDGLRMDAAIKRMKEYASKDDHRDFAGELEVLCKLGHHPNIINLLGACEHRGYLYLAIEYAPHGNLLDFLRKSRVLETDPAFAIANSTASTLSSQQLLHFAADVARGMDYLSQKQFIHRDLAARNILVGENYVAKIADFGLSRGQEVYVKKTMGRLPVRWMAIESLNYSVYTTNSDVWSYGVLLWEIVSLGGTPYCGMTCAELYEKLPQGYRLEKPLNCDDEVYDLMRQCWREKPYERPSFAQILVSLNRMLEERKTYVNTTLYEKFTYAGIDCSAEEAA
recombinant Tie2 extracellular domain-Fc fusion: residues 23-748 of Q02763
soluble monomeric Tie2 receptor: residues 23-745 of Q02763

These are yes or no findings as the source states them, for the method shown. Some results given as binding are weak or reduced against the parent protein; the word gives no strength.

The target of test [1] is recombinant Tie2 extracellular domain-Fc fusion (UniProt Q02763). As to the kind of experiment: BIAcore SPR; mAb captured on rabbit anti-mouse IgG Fc with Tie2-Fc injected, and the reverse format. (Surface plasmon resonance follows binding to a sensor surface in real time, without labels.)
The target of test [2] is soluble monomeric Tie2 receptor (UniProt Q02763). As to the kind of experiment: BIAcore SPR.

B1: murine monoclonal antibody 15B8 (antibody, V domains shown)
VH: QVQLQQPGVVLVMPGASVKLSCKASGYTFASYWMHWVKQRPGQGLEWIGEIDPSDSYRNYNQKFKGKATLTVDKSSSTVNMQLSSLTSEDSAVYYCAKTSGIGRAMDYWGQGTSVTVSS
VL: DIQMIQSPASLSASVGETVTITCRASENIYSFVTWYQQKQGKSPQLLVFNAKNLVEGVPSSFSGSGSGTQFSLKIDSLQPEDFGTYYCQHHYSIPYTFGGGTKLEMR
notes: Constant regions are mouse IgG heavy and kappa light, going by the PCR primers; also called mAb 15B8; mAb 1 B 8
Consider B1, for which the binding result in test [1] and in test [2] was “binds” throughout.

B2: murine monoclonal antibody 13H10 (antibody, V domains shown)
VH: QIQLVQSGPELKKPGETVKISCKASGYTFTDFSIHWVKQAPGKGLKWMGWINTETGETTYAEDFKGRFAFSLETSASTAYLQINNLKNEDTATYFCSRRYDYDTWFAYWGQGTLVTVS
VL: DIVMTQAALSVPVTPGESVSISCRSSSSLLHRNGNTYLYWFLQRPGQSPQLLIYRMSNLASGVPDRFSGSGSGTAFTLRISRVEAEDVGVYYCMQRLEYPFTFGGGTKLEIKR
notes: Constant regions are mouse IgG heavy and kappa light, going by the PCR primers; also called mAb 13H10; mAb 13H 10
Regarding B2, the binding result in test [1] and in test [2] was “binds” each time.
